The target of the series is T1, R.LlaAI (Lactococcus lactis subsp. cremoris W9) (UniProt P50177).
T1 sequence: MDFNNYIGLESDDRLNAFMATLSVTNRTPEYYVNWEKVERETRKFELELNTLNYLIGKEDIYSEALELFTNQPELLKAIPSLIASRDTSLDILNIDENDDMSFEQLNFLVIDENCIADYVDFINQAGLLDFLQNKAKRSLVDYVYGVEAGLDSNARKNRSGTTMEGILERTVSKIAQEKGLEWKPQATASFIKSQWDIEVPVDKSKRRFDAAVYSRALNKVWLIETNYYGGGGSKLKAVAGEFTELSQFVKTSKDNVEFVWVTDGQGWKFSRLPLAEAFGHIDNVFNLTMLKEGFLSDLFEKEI
Briefly: enzyme reaction in vitro. The following applies: purified native protein, only the motif is given, variant of GATC recognition site.

The exact form of at least one protein or probe is not confirmed. No signal at the amounts used counts as a negative. Protein sequences can lack the tags named with them.

GATC (double strand): the “activity on this sequence” value is, setting by setting: (N6-methyladenine at A (dam)) “not active”; (methylated by LlaAI methylases) “not active”.
